The record followed here is patent publication US20190336574A1 (TRUSTEES OF PRINCETON UNIVERSITY, published 2019).

No constants are given. Whether binding was seen depends on the method and setting. For some of these results: Binding seen in cells or lysates may run through a third protein. Some binding calls cover weakened binding; strength is not graded here. For some of these results: Where a sequence is shown, tags or fusion partners need not be part of it.

Assay [1] has as its target T1, His6-SND1ΔC (SND1 residues 1-339) (human, UniProt Q7KZF4 1-339).
T1 construct: not shown: N-terminal His tag (His6, His8 or His) with TEV site, pQlink vector
T1 sequence: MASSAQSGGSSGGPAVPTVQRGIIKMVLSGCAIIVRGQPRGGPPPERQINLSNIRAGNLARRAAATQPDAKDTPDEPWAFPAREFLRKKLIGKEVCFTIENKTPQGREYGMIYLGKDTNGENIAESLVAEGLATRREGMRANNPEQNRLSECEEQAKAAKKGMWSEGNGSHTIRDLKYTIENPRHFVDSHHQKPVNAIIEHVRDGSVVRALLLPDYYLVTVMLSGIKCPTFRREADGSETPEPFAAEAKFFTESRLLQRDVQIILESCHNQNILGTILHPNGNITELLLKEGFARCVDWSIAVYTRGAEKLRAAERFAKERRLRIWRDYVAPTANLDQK
Description: schematic that sums up the GST pull-downs of His6-SND1ΔC. The text has this: (§1) FIGS. 7A-E represents determination of key regions and residues mediating the MTDH-SND1 interaction. (FIG. 7A) Schematics of MTDH fragments and mutants with indicated SND1-binding capability. + indicates binding and − indicates no binding based on results shown below. Two putative nuclear localization signals are residues 432-451 for NLS2 and residues 561-580 for NLS3. […] (FIG. 7B) Pulldown of His6-SND1ΔC by GST-tagged MTDH fragments with indicated boundaries. The bound proteins were examined by SDS-PAGE and visualized by Coomassie blue staining. […] For (FIG. 7B) and (FIG. 7C), 1/10 of the His6-SND1ΔC input was shown, and GST alone was used as a negative control. Representative results of 3 independent experiments are shown. (FIG. 7D, FIG. 7E) Lysates from HEK293T cells expressing the indicated ectopic human SND1, AGO2 or MTDH were immunoprecipitated with anti-Myc and immunoblotted with the indicated antibodies.
To further test whether the physical interaction with SND1 is critical for the function of MTDH, detailed analysis on the interaction of the proteins was conducted. SND1 contains four N-terminal Staphylococcal nuclease (SN) repeats and a C-terminal Tudor-SN hybrid domain. […] This allowed us to use the SND1ΔC fragment for the following in vitro binding studies.

Assay [2] deals with T1, His6-SND1ΔC (SND1 residues 1-339). Put plainly: GST pull-down, SDS-PAGE, Coomassie blue.
Assay [3] has the same target. Put plainly: GST pull-down of His6-SND1ΔC, SDS-PAGE, Coomassie.
Text: as §1
TPM1 comprises mutations D389R, D393R and W394D. TPM2 comprises mutations E399R, E400R and W401D. TPM3 comprises mutations W404D, D406R and E407R. […] The mutations are also set out in Table 3.

Assay [4] has as its target T2, HA-SND1, full-length human, wild type (human, UniProt Q7KZF4 1-910).
T2 sequence: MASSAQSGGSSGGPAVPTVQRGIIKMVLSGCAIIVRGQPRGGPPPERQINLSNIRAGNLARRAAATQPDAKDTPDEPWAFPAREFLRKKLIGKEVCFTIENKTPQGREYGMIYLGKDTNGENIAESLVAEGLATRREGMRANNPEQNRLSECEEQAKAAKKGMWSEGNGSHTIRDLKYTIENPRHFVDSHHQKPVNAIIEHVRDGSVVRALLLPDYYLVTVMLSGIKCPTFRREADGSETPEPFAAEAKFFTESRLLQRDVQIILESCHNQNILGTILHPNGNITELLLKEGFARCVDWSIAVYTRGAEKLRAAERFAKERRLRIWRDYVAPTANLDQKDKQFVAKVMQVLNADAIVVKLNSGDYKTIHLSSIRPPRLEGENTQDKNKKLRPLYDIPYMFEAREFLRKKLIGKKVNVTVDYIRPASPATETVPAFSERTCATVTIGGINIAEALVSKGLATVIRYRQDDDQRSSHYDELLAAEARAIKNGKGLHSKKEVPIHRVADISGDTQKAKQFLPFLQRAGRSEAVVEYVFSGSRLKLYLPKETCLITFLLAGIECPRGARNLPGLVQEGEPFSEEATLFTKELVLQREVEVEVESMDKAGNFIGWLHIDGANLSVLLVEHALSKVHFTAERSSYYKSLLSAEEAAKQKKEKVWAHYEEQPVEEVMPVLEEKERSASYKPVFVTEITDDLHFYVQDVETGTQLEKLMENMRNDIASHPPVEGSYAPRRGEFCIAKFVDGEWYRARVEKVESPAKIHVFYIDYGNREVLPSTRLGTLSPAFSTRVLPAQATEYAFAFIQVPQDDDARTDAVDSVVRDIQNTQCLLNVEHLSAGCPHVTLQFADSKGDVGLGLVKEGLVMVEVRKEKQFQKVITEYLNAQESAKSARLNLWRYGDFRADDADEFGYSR
Description: competition in co-IP from 293T cells with HA-SND1 and MYC-MTDH (m36 is the competitor); peptide at 50 uM; the sheet prints IP: MYC, the legend says anti-HA [26B, 26C, 26D]. As for the experimental part: 293 T cells were co-transfected with HA-SND1 and MYC-MTDH. After 48 hours, the cells were collected and subject to immunoprecipitation assay. Cell lysate was incubated with anti-HA antibody or IgG overnight followed by a two hour incubation with Protein A/G beads to pull down HA-SND1 protein. The beads were washed with lysis buffer and split into five fractions.
The elution fractions and beads were collected for western blot. (FIGS. 26C and 26D) Cell lyaste was split into 6 fractions. One of the fractions was incubated with IgG and the rest were incubated with anti-HA antibody plus either buffer or indicated peptides. After 24 hours, the lysate was incubated with Protein A/G beads then the beads was washed followed by wash buffer. 50 uM of peptides was used in all the assays.

Take YQWDVSRNQPYIDDEWSGLNGLSSADPNSDWNAPAEEWGNWVDE [GST-MTDH 364-407]: the binding entry in assay [1] and in assay [2] was “binds” in each case.

SSADPNSDWNAPAEEWGNWVDE (peptide, not shown: a dimerising Fc or GST) [GST-MTDH (386-407), wild type]: the binding entry in assay [3] is listed as “binds”.

B1: Peptide-401A (PNSDWNAPAEEAGNW) (peptide)
peptide: PNSDWNAPAEEAGNW
notes: also called peptide comprising the single point mutation W401A
For the molecule B1, the binding entry in assay [4] is reported as “binds”.
